Reference: PubChem BioAssay AID1053208 (Peter MacCallum Cancer Centre, 2014)
Assay: 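Find knock-downs that sensitise mouse osteosarcoma cells to doxorubicin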 (primary screen). Cells: mouse osteosarcoma cells, early-passage culture from an engineered mouse model of fibroblastic bone tumour. Knock-down reagent: siRNA pool against mouse genes, 40 nM. Time to read-out: about 120 h (48 h before drug, then 72 h with drug). Conditions: doxorubicin 100 nM for 72 h, roughly 30-40% inhibitory dose. Read-out: 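Viability read as ATP luminescence after 72 h of 100 nM doxorubicin or none, duplicate wells averaged, scaled to non-targeting siRNA, then expressed as robust z-scores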. Scale: viability z-score with doxorubicin: higher = more viable cells under doxorubicin; viability z-score without drug: higher = more viable cells with knock-down alone. Rule for the call: 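Called active if knock-down leaves viability unchanged without drug (z within -2 to 2) but lowers it with doxorubicin (z at or under -2)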.
Shown is an unselected part of about 17,000 reagents tested. Over the whole deposit, 788 (4.7%) were called active. 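Calls rest on z-score classes alone; an extra cut-off of viability at most 70% of control was not applied to them.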 The numbers tell different reagents against one gene apart. Not all columns of the deposit are shown.

Skint11 (selection and upkeep of intraepithelial T cells 11) | combined z-score class = no change with or without drug; viability z-score with doxorubicin = -1.01; viability z-score without drug = 0.67; outcome = inactive
Hook3 (hook microtubule tethering protein 3) | combined z-score class = no change with or without drug; viability z-score with doxorubicin = -0.34; viability z-score without drug = 1.18; outcome = inactive
Vmn2r122 (vomeronasal 2, receptor, 122) #1 | combined z-score class = high cell count without drug only; viability z-score with doxorubicin = 1.12; viability z-score without drug = 2.53; outcome = inactive
Vmn2r122 (vomeronasal 2, receptor, 122) #2 | combined z-score class = high cell count without drug only; viability z-score with doxorubicin = 1.91; viability z-score without drug = 2.36; outcome = inactive
Ctnnb1 (catenin beta 1) | combined z-score class = no change with or without drug; viability z-score with doxorubicin = -0.11; viability z-score without drug = 0.17; outcome = inactive
C3ar1 (complement component 3a receptor 1) | combined z-score class = no change with or without drug; viability z-score with doxorubicin = 0.45; viability z-score without drug = 1.85; outcome = inactive
Greb1 (gene regulated by estrogen in breast cancer protein) | combined z-score class = no change with or without drug; viability z-score with doxorubicin = -0.34; viability z-score without drug = -1.18; outcome = inactive
A930104D05Rik (RIKEN cDNA A930104D05 gene) | combined z-score class = no change with or without drug; viability z-score with doxorubicin = 0.67; viability z-score without drug = 1.85; outcome = inactive
Kirrel3 (kirre like nephrin family adhesion molecule 3) | combined z-score class = no change with or without drug; viability z-score with doxorubicin = -0.34; viability z-score without drug = -0.17; outcome = inactive
Eif4enif1 | combined z-score class = no change with or without drug; viability z-score with doxorubicin = 0.22; viability z-score without drug = 1.35; outcome = inactive
Nckap1l (NCK associated protein 1 like) | combined z-score class = no change with or without drug; viability z-score with doxorubicin = 0.45; viability z-score without drug = -0.51; outcome = inactive
Copa (coatomer protein complex subunit alpha) | combined z-score class = low cell count with and without drug; viability z-score with doxorubicin = -6.74; viability z-score without drug = -5.9; outcome = inactive
Loxl1 (lysyl oxidase-like 1) | combined z-score class = high cell count without drug only; viability z-score with doxorubicin = 1.01; viability z-score without drug = 2.02; outcome = inactive
Mt2 (metallothionein 2) | combined z-score class = no change with or without drug; viability z-score with doxorubicin = -0.34; viability z-score without drug = -1.18; outcome = inactive
Hdac10 (histone deacetylase 10) | combined z-score class = no change with or without drug; viability z-score with doxorubicin = 0.34; viability z-score without drug = -0.17; outcome = inactive
Lck (lck proto-oncogene, Src family tyrosine kinase) | combined z-score class = no change with or without drug; viability z-score with doxorubicin = 0; viability z-score without drug = -0.51; outcome = inactive
Adap2 (ArfGAP with dual PH domains 2) | combined z-score class = low cell count with doxorubicin only; viability z-score with doxorubicin = -2.02; viability z-score without drug = 0.51; outcome = active
Cend1 (cell cycle exit and neuronal differentiation 1) | combined z-score class = no change with or without drug; viability z-score with doxorubicin = -1.8; viability z-score without drug = 0.84; outcome = inactive
Wdr72 (WD repeat domain 72) | combined z-score class = no change with or without drug; viability z-score with doxorubicin = 1.12; viability z-score without drug = 1.52; outcome = inactive
Tas2r102 (taste receptor, type 2, member 102) | combined z-score class = low cell count with doxorubicin only; viability z-score with doxorubicin = -3.04; viability z-score without drug = 0.34; outcome = active

Copied from the entries so far (5 entries):
Loxl1 (lysyl oxidase-like 1) | combined z-score class = high cell count without drug only; viability z-score with doxorubicin = 1.01; viability z-score without drug = 2.02; outcome = inactive
Mt2 (metallothionein 2) | combined z-score class = no change with or without drug; viability z-score with doxorubicin = -0.34; viability z-score without drug = -1.18; outcome = inactive
Hdac10 (histone deacetylase 10) | combined z-score class = no change with or without drug; viability z-score with doxorubicin = 0.34; viability z-score without drug = -0.17; outcome = inactive
Lck (lck proto-oncogene, Src family tyrosine kinase) | combined z-score class = no change with or without drug; viability z-score with doxorubicin = 0; viability z-score without drug = -0.51; outcome = inactive
Adap2 (ArfGAP with dual PH domains 2) | combined z-score class = low cell count with doxorubicin only; viability z-score with doxorubicin = -2.02; viability z-score without drug = 0.51; outcome = active

More entries follow.
Krt19 (keratin 19) | combined z-score class = high cell count without drug only; viability z-score with doxorubicin = -0.22; viability z-score without drug = 2.7; outcome = inactive
Gorasp2 (golgi reassembly stacking protein 2) | combined z-score class = no change with or without drug; viability z-score with doxorubicin = -0.22; viability z-score without drug = -0.84; outcome = inactive
Or9i14 (olfactory receptor family 9 subfamily I member 14) | combined z-score class = no change with or without drug; viability z-score with doxorubicin = 0.45; viability z-score without drug = 0; outcome = inactive
Emx2 (empty spiracles homeobox 2) | combined z-score class = no change with or without drug; viability z-score with doxorubicin = 0.22; viability z-score without drug = 0.67; outcome = inactive
5031434C07Rik (RIKEN cDNA 5031434C07 gene) | combined z-score class = no change with or without drug; viability z-score with doxorubicin = -0.22; viability z-score without drug = 1.85; outcome = inactive
Ifnar1 (interferon (alpha and beta) receptor 1) | combined z-score class = no change with or without drug; viability z-score with doxorubicin = -0.45; viability z-score without drug = -0.84; outcome = inactive
Hoxa7 (homeobox A7) | combined z-score class = low cell count with doxorubicin only; viability z-score with doxorubicin = -2.47; viability z-score without drug = -1.85; outcome = active
Utp11 (UTP11 small subunit processome component) | combined z-score class = no change with or without drug; viability z-score with doxorubicin = -1.35; viability z-score without drug = -0.17; outcome = inactive
Cstb (cystatin B) | combined z-score class = no change with or without drug; viability z-score with doxorubicin = 1.8; viability z-score without drug = -0.51; outcome = inactive
Mug2 (murinoglobulin 2) | combined z-score class = no change with or without drug; viability z-score with doxorubicin = -1.35; viability z-score without drug = -1.18; outcome = inactive
Osbpl5 (oxysterol binding protein-like 5) | combined z-score class = no change with or without drug; viability z-score with doxorubicin = -1.12; viability z-score without drug = -0.67; outcome = inactive
Cdh24 (cadherin-like 24) | combined z-score class = no change with or without drug; viability z-score with doxorubicin = -0.22; viability z-score without drug = -1.18; outcome = inactive
Dock2 (dedicator of cyto-kinesis 2) | combined z-score class = no change with or without drug; viability z-score with doxorubicin = 0.67; viability z-score without drug = -0.84; outcome = inactive
4930503L19Rik (RIKEN cDNA 4930503L19 gene) | combined z-score class = no change with or without drug; viability z-score with doxorubicin = -0.67; viability z-score without drug = 1.18; outcome = inactive
Tsc1 (TSC complex subunit 1) | combined z-score class = no change with or without drug; viability z-score with doxorubicin = 0; viability z-score without drug = 0.84; outcome = inactive
Slc52a2 | combined z-score class = no change with or without drug; viability z-score with doxorubicin = -0.34; viability z-score without drug = -0.67; outcome = inactive
